Reference: paper PMC7995733

Sequences of proteins named here, by UniProt entry; tags and fusion partners are left off. Residues count along the entry.
UniProt P19957, residues 61-117: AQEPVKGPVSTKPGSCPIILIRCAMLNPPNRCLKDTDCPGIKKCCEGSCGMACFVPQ

Target: Elafin (endogenous, PLC-8024 cells) (human (endogenous in PLC-8024)) (UniProt P19957)
Assay: affinity purification with mass spectrometry; immunoprecipitation of Elafin from the PLC-8024-cell-mixture (RIPA cell extracts mixed with concentrated conditioned medium), mass spectrometry of the precipitate

With “Epidermal growth factor receptor (endogenous, HCC cells) (from UniProt P00533 25-1210)” as the substance, how does the binding read?
The binding was “binds”.

No constants are given. Whether binding was seen depends on the method and setting. Binding seen in cells or lysates may run through a third protein. These calls come from enrichment with a bait or labelling near it, and not all partners need be listed.
